The values below come from PMC6707328.

Chains of the proteins cited; added tags and fusions are not shown.
UniProt P47239: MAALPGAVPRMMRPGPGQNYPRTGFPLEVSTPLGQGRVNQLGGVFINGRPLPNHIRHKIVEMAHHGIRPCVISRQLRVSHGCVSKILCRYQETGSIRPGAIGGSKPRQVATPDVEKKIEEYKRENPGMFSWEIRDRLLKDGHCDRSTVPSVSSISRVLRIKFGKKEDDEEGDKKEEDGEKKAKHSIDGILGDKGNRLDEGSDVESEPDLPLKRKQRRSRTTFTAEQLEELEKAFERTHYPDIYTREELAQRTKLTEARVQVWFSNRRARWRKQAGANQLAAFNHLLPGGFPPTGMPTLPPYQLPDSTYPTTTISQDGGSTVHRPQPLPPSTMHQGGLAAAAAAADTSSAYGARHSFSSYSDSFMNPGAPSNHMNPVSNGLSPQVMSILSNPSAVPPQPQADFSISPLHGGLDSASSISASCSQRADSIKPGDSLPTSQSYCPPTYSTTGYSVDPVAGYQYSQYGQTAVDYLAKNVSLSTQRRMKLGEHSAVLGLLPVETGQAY

The target of one experiment is MBP-Pax7 (UniProt P47239). In words: pull-down; MBP fusion proteins on maltose amylose beads incubated with 35S-labeled in vitro translated protein in TNEN50 (50 mM Tris pH 7.5, 5 mM EDTA, 50 mM NaCl, 0.1% NP-40) with 1 mM PMSF and 2% BSA, 4 h at 4 °C; three washes with TNEN125; SDS-PAGE and autoradiography; only the target purified.
The target of experiment [1] is MBP-βGal [β-galactosidase: P00722]. Described as above.

Results are given in words; binding and its absence hold for the method and conditions named. Binding seen in cells or lysates may run through a third protein. Some binding calls cover weakened binding; strength is not graded here.

B1: Tpit (protein, UniProt Q99ME7 1-446)
chain: MSELATQKAGEGTVSRLLNVVESELQAGREKGDPTEKQLQIILEDAPLWQRFKEVTNEMIVTKNGRRMFPVLKISVTGLDPNAMYSLLLDFVRTDSHRWKYVNGEWVPAGKPEVSSHSCVYIHPDSPNFGAHWMKAPISFSKVKLTNKLNGGGQIMLNSLHKYEPQVHIVRVGGAHRMVMNCSFPETQFIAVTAYQNEEITALKIKYNPFAKAFLDAKERNHLKDVPEAISESQHVTYSHLGGWILSNPDGVCTAANSNYQYATPLPLPAPHTHHGCEHYAGLRGHRQAPYPSAYMHRNHSPSVNLIESSSNNLQVFSGPDSWTSLSSTPHASILSVPHSNGPINPGPSPYPCLWTISNGGGGPVASGSEVHASTSGTILLGNPAVTSPSSLLPTQATTSAGVEVLGEPSLTSIAVSTWTAVASHPLPGWGGPGGAGRHSSSSLDS
modifications: 35S-labeled
As for B1, the binding result is recorded as “binds” with MBP-Pax7 and “no binding” in experiment [1].
